This note sets out measurements from the supplement of paper PMC12819154, “High-throughput peptide-centric local stability assay extends protein–ligand identification to membrane proteins, tissues and bacteria” (Nature Structural & Molecular Biology, 2025).

By UniProt entry, the sequences of proteins in these tests, tags left out. Where a name states a change or a piece, a line headed by the entry shows the natural chain unless it says otherwise.
UniProt Q96L94: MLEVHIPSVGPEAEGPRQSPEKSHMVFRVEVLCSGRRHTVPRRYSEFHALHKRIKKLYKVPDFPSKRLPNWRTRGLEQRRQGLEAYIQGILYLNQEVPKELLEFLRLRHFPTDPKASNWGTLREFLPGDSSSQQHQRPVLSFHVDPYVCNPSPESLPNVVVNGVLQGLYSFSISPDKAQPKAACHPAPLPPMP
UniProt Q96IX5: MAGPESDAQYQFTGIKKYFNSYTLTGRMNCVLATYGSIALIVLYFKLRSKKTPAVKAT
UniProt Q96L73: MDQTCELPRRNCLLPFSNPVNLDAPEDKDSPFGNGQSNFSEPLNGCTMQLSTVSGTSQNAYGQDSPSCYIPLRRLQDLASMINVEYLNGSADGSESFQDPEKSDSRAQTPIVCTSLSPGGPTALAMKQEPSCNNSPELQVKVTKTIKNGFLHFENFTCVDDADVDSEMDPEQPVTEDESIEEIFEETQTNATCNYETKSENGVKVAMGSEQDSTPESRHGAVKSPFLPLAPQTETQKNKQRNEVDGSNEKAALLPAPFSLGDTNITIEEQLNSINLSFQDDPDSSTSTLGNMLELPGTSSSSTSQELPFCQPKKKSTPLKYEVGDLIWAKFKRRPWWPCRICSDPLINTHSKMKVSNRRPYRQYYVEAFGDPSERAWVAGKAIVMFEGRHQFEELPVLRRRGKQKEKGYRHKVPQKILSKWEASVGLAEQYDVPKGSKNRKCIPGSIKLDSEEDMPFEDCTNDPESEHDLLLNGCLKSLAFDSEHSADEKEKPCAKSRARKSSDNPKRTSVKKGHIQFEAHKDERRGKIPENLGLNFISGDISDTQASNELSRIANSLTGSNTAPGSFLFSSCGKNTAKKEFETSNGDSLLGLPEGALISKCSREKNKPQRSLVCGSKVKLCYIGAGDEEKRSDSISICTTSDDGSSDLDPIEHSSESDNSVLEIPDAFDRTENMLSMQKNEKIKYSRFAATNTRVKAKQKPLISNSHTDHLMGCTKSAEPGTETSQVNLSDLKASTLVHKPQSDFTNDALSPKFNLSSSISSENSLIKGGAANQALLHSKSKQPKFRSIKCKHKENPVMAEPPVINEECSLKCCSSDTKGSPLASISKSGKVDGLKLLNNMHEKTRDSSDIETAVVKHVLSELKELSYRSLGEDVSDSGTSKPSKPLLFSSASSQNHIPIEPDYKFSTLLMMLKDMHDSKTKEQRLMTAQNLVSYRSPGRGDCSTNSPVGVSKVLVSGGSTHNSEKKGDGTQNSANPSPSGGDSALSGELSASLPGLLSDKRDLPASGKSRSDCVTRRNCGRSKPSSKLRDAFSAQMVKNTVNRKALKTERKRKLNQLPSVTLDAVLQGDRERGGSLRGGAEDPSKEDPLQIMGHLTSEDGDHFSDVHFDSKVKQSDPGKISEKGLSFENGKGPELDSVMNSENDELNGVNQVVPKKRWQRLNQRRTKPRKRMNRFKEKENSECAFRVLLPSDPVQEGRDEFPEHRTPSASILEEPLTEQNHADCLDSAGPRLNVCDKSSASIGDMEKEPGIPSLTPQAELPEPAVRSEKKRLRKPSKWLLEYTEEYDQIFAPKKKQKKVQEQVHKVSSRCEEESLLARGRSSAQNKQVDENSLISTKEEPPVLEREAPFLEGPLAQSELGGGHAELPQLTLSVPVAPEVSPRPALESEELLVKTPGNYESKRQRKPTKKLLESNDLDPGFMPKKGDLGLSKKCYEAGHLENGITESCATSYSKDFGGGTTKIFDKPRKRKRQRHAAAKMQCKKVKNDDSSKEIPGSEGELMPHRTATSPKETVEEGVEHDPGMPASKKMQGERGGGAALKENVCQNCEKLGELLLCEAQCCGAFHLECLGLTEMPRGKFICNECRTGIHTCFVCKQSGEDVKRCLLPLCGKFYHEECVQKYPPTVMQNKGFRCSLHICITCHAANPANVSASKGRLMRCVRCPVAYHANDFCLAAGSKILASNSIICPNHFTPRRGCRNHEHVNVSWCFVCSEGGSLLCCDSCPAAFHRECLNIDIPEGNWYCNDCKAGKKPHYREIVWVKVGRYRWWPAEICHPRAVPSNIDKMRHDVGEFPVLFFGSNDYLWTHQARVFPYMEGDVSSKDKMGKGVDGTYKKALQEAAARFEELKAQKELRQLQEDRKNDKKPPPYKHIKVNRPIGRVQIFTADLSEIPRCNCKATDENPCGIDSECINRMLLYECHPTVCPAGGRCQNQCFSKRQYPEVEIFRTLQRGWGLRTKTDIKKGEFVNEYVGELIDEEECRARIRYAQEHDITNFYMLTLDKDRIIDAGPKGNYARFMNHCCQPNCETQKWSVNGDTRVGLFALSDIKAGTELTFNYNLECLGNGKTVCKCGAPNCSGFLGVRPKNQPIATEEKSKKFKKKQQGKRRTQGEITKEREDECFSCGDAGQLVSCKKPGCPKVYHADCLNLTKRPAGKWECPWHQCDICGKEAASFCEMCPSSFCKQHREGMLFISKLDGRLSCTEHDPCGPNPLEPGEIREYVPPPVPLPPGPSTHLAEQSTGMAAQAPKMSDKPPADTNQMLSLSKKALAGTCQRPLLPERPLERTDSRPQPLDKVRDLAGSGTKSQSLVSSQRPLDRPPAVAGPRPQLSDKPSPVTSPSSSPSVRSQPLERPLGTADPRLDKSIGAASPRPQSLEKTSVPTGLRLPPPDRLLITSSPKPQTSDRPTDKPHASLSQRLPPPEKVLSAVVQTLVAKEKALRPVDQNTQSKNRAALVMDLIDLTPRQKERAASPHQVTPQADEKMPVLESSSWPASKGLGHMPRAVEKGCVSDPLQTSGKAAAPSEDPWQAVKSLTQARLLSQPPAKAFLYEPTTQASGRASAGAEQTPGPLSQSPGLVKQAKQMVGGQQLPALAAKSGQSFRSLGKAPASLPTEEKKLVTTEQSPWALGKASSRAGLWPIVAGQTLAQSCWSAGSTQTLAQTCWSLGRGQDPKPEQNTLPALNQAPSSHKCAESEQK
UniProt Q96JB3: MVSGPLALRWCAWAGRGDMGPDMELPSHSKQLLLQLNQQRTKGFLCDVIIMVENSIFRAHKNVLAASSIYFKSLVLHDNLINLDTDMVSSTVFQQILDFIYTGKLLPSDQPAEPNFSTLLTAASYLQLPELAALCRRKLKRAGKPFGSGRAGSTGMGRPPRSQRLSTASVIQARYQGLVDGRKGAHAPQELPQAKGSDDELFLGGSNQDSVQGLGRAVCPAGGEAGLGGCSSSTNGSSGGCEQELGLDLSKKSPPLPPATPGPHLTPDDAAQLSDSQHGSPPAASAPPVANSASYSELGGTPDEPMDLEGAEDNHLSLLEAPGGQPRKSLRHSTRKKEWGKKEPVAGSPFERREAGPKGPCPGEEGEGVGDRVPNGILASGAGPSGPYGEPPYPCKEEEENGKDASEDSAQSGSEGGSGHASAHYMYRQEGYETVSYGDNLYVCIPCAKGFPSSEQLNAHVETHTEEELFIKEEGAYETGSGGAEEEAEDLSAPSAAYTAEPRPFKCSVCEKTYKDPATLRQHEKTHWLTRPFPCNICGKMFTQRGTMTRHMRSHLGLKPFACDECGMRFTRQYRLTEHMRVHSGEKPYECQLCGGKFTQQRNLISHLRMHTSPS
UniProt Q96JB5: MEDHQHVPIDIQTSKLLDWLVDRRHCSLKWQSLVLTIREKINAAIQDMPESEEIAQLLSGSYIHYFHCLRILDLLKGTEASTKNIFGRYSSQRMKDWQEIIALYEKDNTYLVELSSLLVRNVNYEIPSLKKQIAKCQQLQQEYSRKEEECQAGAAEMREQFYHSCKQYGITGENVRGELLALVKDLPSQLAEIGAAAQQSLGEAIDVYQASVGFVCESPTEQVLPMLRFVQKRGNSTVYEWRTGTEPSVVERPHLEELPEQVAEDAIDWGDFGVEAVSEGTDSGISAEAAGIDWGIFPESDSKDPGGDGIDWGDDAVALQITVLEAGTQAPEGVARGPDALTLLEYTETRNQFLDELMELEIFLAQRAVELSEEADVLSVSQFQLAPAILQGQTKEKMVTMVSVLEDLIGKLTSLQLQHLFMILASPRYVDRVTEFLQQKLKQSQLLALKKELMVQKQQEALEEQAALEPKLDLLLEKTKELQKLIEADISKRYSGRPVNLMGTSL
UniProt Q96GA7: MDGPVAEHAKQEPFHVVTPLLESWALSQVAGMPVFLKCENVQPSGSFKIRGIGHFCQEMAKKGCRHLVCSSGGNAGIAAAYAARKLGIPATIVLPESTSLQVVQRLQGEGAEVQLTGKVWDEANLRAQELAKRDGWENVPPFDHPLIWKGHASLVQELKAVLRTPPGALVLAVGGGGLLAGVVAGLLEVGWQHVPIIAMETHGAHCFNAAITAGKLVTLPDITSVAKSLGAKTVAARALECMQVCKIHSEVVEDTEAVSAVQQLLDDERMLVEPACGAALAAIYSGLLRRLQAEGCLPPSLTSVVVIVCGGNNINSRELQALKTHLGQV
UniProt Q96KR1: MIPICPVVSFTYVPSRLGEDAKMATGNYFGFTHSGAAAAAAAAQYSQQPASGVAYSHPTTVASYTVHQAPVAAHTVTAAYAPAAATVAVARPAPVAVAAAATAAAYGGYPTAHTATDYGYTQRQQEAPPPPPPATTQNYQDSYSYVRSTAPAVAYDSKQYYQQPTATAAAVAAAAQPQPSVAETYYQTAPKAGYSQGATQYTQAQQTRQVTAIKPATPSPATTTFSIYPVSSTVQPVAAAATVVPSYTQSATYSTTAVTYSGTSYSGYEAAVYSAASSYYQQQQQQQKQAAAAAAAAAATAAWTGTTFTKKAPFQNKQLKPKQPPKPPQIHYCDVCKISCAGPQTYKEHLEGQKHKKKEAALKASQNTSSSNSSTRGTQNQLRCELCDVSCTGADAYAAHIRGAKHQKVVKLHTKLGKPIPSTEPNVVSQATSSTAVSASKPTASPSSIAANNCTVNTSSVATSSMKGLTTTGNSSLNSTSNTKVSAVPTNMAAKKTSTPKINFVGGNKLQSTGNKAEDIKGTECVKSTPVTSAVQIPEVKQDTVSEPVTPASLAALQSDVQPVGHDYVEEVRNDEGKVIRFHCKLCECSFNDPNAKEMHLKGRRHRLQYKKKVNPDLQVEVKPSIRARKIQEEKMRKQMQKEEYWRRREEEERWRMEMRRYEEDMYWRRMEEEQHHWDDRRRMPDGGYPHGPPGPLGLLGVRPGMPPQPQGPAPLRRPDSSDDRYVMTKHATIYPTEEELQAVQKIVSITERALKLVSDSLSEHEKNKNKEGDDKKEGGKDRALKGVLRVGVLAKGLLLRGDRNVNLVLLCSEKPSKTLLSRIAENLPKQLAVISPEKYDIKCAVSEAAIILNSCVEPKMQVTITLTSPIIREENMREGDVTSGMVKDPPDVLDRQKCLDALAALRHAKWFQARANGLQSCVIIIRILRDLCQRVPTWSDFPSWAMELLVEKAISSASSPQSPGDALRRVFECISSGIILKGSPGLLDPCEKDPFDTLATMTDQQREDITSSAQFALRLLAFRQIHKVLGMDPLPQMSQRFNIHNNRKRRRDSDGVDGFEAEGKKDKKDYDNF
UniProt Q96QD9: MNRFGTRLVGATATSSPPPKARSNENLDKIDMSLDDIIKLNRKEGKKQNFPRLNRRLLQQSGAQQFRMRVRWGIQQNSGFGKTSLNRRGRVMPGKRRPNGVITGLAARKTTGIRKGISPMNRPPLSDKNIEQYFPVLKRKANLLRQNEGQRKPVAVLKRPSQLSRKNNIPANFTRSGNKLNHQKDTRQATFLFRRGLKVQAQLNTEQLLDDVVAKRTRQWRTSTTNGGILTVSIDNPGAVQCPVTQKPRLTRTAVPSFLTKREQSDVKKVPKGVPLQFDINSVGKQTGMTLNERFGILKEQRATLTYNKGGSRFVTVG
UniProt Q96GC6: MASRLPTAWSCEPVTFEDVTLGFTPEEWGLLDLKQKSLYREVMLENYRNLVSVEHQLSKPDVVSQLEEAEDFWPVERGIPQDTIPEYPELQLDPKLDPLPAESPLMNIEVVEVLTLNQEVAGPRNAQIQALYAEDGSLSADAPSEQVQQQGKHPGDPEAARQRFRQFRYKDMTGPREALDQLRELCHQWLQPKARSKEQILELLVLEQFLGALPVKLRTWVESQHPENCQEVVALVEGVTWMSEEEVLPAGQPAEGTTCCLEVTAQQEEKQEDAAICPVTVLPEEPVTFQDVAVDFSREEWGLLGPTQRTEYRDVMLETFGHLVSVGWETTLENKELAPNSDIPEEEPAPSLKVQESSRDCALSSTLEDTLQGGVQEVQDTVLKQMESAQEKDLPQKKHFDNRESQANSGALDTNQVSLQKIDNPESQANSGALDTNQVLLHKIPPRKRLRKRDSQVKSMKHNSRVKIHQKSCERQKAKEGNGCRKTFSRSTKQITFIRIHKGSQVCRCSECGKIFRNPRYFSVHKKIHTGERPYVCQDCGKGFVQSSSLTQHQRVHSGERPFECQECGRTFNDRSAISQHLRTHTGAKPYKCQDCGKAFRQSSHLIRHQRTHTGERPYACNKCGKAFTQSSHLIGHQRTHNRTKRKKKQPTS

This is one part of the list. Most values lie at the level of the controls, where differences are scatter.

Compound in the experiment: Cc1nc(Nc2ncc(C(=O)Nc3c(C)cccc3Cl)s2)cc(N2CCN(CCO)CC2)n1 [dasatinib]
The experiment can be described thus: log2 fold change of tryptic peptide abundance, ligand vs vehicle (limited proteolysis) (log2 ratio); higher = more trypsin-susceptible (destabilized). The settings on record: ligand concentration: 5 uM; sample: K562 cleared lysate.
With “UniProt Q96L94 (peptide sequence: ASNWGTLR, peptide start residue: 116)”, the log2 fold change came out at 0.869.
The same measure for “UniProt Q96IX5 (peptide sequence: AGPESDAQYQFTGIKK, peptide start residue: 2)”: -0.229.
The value for “UniProt Q96S19 (peptide sequence: CTEGLFR, peptide start residue: 118)” was -0.244; that for “NSD1 (peptide sequence: LLNNMHEK, peptide start residue: 838) (UniProt Q96L73)” was -0.689.
The value for “HIC2 (peptide sequence: QLLLQLNQQR, peptide start residue: 31) (UniProt Q96JB3)” was -0.599; that for “CDK5RAP3 (peptide sequence: ILDLLKGTEASTK, peptide start residue: 71) (UniProt Q96JB5)” was 0.734.
With “SDSL (peptide sequence: LQGEGAEVQLTGK, peptide start residue: 106) (UniProt Q96GA7)”, the log2 fold change turned out to be 0.143.
The same measure for “ZFR (peptide sequence: INFVGGNKLQSTGNK, peptide start residue: 502) (UniProt Q96KR1)”: 0.374; for “FYTTD1 (peptide sequence: QATFLFR, peptide start residue: 188) (UniProt Q96QD9)”: 0.111; for “UniProt Q96GC6 (peptide sequence: KTFSRSTK, peptide start residue: 486)”: -0.0367.
